From patent CN114409782A
Where a chain is given by its changes, count along the chain named. Results are given in words; binding and its absence hold for the method and conditions named. Some results given as binding are weak or reduced against the parent protein; the word gives no strength. Tags and fused reporters may be left off the sequences shown.

T1: IL13Ra2 on the cell surface (UniProt Q14627)
T1 sequence (looked up): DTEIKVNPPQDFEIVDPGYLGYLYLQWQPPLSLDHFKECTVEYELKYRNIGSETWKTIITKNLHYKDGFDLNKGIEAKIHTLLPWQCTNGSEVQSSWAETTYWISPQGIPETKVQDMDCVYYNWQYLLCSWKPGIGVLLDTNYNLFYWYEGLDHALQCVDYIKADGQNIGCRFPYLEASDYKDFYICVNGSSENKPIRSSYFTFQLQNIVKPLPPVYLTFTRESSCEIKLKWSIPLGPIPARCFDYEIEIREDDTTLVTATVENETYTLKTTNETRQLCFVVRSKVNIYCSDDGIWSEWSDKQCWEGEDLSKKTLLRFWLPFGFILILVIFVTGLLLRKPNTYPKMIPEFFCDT

B1: 抗IL13Ra2纳米抗体VHH-7 (VHH-mIgG2a Fc) (Fc fusion, not shown: a dimerising Fc or GST)
chain: QVQLVESGGGLAHPGGRLRVTCTASGANLKNYAVGWFRQRPGKQREEVACLRVRYANTNKAPSVRERVHVFREENNNLVYMLMSDLTPEDTGIYYCAARPQQPSADCSLLANDYDNWGQGIQVTVSE
B2: 抗IL13Ra2纳米抗体VHH-16 (VHH-mIgG2a Fc) (Fc fusion, not shown: a dimerising Fc or GST)
chain: B1 chain with Q39R, T58S, N75K, L110S
B3: 抗IL13Ra2纳米抗体VHH-1 (VHH-mIgG2a Fc) (Fc fusion, not shown: a dimerising Fc or GST)
chain: QVQLVESGGGLVQPGGSLRLSCAASGFTLDYYAIAWFRQAPGKRREGVSCISSSEGSTNYADSVKGRFTISRDNAKNTVYLQMNSLKPEDTAVYYCAADSTGRCWARPLYEYDYRGQGTQVTVSS
B4: 抗IL13Ra2纳米抗体VHH-13 (VHH-mIgG2a Fc) (Fc fusion, not shown: a dimerising Fc or GST)
chain: B3 chain with L11S, P14A, A23T, A24S, G26R
B5: 抗IL13Ra2纳米抗体VHH-8 (VHH-mIgG2a Fc) (Fc fusion, not shown: a dimerising Fc or GST)
chain: B3 chain with E55G, D62N

These binders were tested against T1, IL13Ra2 on the cell surface (assay: flow cytometry on cells, APC goat anti-mouse IgG detection).

binding, binds:
B1, B2, B3, B4, B5
